Results on 1 substance are retold here after publication PMC7067828, “FAM111A protects replication forks from protein obstacles via its trypsin-like domain”.

Sequences of proteins named here, by UniProt entry; tags and fusion partners are left off.
UniProt Q96PZ2: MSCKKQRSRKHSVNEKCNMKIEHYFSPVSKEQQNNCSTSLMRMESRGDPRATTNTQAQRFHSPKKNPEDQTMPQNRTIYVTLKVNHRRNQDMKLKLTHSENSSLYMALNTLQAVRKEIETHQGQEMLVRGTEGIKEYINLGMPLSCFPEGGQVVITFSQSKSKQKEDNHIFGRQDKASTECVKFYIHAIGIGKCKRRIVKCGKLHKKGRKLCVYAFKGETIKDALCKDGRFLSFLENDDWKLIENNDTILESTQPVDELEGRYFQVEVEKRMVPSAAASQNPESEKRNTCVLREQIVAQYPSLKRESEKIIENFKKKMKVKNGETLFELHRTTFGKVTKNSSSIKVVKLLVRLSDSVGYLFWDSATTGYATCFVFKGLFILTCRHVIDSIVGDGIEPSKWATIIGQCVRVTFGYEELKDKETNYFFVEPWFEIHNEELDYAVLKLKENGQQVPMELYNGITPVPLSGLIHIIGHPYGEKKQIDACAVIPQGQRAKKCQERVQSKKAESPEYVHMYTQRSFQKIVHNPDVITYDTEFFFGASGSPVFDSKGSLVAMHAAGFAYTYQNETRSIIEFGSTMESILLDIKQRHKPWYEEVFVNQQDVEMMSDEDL

The test has as its target FAM111A (Family with sequence similarity 111 member A), wild type (human) (UniProt Q96PZ2). The test can be described thus: co-IP; 293T cells transfected for 48 h; NP-40 lysis buffer (50 mM Tris-HCl pH 7.4, 150 mM NaCl, 0.1% NP-40) with 41 U/ml Benzonase; lysate (~1 mg protein) on anti-Flag beads 4 h at 4 °C, five washes; Western blotting. A general note: A western blot detects proteins with antibodies after separation by electrophoresis.

These are yes or no findings as the source states them, for the method shown. In cells and extracts the contact can be indirect. Some entries that bind do so weakly or less than the wild type.

With “FAM111A (Family with sequence similarity 111 member A), wild type (from UniProt Q96PZ2 1-611)”, the binding result is recorded as “binds”.
